No constants are given. Whether binding was seen depends on the method and setting. Binding seen in cells or lysates may run through a third protein. A yes stands for co-enrichment or nearness to the bait. Other partners may have been found. Where a sequence is shown, tags or fusion partners need not be part of it.
These substances were tested against T1, FLAG-HA-Rbm10 (S. pombe) (UniProt P87143) (assay: affinity purification with mass spectrometry; two-step purification (anti-FLAG beads, 3xFLAG peptide elution, then uMACS HA magnetic beads) of overexpressed FLAG-HA-Rbm10 from S. pombe lysate with Benzonase; three independent purifications; control purification from an untagged strain).
T1 sequence: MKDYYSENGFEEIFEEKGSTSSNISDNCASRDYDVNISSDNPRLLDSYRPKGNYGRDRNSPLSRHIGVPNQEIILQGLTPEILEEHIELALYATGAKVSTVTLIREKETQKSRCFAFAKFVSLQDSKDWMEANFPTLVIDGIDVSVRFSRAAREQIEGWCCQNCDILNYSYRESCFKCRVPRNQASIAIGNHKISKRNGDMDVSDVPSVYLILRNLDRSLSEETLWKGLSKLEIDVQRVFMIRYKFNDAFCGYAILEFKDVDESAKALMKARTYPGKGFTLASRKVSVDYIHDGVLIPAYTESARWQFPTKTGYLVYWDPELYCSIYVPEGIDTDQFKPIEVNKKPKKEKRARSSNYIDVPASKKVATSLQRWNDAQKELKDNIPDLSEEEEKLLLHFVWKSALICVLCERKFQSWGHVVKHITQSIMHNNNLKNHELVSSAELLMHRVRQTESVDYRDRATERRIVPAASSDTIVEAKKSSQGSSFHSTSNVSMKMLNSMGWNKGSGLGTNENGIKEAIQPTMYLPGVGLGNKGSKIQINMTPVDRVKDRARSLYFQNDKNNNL

Sequences of proteins named here, by UniProt entry; tags and fusion partners are left off. A change or cut given only in a name is not applied to a line headed by its entry.
UniProt O59670: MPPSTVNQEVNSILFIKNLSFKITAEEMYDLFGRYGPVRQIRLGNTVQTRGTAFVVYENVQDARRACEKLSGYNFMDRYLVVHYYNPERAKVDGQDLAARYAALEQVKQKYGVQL
UniProt O74970: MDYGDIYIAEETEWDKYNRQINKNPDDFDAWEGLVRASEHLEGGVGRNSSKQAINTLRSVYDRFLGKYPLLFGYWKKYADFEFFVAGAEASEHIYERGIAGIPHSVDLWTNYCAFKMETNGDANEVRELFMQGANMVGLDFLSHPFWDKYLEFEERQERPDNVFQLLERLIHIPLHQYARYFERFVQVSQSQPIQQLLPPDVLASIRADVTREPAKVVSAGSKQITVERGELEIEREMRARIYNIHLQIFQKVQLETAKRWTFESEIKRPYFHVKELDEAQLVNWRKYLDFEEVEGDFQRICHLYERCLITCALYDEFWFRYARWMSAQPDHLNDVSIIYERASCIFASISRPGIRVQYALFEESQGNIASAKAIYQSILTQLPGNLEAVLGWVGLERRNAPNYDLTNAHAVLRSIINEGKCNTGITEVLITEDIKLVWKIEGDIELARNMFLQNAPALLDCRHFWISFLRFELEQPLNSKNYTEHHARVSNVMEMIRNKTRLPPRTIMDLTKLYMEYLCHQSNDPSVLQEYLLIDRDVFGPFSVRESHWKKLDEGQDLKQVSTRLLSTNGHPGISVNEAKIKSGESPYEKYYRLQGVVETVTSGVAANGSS
UniProt Q9UT24: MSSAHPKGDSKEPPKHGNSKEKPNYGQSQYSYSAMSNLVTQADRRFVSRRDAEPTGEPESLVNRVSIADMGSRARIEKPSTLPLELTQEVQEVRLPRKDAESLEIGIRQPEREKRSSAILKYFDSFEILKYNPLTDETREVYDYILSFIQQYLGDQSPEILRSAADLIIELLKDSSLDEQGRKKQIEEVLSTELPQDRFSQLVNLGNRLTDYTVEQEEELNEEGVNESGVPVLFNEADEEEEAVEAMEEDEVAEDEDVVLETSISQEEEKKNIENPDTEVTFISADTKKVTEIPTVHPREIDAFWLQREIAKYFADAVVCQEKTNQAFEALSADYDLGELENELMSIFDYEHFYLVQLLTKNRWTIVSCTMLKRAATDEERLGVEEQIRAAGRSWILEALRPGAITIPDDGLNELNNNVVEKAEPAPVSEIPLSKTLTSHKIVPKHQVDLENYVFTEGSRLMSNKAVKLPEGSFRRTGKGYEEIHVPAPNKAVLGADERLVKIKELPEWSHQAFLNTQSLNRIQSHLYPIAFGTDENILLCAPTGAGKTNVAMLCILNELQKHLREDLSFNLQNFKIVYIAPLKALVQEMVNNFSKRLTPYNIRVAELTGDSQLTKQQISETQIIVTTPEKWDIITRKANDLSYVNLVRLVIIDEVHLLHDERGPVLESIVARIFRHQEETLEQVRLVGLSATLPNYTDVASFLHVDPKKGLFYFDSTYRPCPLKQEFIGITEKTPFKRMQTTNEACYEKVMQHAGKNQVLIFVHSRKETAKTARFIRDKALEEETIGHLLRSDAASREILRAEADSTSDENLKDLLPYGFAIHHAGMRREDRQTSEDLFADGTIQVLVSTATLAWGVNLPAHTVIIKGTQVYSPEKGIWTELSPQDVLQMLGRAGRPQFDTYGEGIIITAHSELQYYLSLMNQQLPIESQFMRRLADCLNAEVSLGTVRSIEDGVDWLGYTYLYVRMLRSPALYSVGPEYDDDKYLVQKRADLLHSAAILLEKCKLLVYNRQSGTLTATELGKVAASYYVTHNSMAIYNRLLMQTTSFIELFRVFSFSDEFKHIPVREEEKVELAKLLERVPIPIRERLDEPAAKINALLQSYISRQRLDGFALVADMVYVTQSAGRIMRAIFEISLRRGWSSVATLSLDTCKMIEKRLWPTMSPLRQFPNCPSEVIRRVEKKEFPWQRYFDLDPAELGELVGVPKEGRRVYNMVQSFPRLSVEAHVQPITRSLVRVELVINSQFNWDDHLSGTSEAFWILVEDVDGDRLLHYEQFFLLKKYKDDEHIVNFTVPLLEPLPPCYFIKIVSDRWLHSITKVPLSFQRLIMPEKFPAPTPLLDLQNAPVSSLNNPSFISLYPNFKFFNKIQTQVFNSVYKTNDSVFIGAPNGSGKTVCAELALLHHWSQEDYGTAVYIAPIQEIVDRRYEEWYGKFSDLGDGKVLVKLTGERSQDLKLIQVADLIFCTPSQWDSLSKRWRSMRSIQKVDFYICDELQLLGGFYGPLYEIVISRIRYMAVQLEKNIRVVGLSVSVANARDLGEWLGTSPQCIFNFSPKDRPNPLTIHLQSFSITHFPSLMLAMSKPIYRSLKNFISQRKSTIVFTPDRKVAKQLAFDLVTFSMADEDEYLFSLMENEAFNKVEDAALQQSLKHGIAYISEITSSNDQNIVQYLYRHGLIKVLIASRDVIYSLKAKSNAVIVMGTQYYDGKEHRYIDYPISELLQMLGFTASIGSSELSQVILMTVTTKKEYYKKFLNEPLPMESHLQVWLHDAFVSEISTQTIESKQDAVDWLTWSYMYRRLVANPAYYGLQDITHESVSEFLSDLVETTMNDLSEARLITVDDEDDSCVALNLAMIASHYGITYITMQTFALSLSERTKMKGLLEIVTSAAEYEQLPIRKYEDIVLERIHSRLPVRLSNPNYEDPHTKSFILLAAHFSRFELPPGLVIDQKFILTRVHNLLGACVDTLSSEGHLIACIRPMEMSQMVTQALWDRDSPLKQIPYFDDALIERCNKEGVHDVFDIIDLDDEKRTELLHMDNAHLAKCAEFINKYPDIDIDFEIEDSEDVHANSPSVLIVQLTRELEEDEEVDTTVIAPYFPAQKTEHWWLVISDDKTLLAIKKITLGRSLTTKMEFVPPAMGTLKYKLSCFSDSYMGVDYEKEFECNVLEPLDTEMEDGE
UniProt Q9UTC7: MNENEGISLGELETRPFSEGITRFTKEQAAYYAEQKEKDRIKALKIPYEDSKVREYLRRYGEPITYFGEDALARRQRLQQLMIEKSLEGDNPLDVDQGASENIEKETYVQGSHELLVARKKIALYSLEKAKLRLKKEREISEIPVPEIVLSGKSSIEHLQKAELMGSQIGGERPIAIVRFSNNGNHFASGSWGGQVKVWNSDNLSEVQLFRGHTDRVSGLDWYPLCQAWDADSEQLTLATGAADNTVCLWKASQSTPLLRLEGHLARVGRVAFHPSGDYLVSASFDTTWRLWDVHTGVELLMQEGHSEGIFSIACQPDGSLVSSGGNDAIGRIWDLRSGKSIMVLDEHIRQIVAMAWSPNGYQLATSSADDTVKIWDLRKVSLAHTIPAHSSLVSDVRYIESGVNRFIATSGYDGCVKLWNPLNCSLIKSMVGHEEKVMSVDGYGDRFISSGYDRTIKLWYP
UniProt O42945: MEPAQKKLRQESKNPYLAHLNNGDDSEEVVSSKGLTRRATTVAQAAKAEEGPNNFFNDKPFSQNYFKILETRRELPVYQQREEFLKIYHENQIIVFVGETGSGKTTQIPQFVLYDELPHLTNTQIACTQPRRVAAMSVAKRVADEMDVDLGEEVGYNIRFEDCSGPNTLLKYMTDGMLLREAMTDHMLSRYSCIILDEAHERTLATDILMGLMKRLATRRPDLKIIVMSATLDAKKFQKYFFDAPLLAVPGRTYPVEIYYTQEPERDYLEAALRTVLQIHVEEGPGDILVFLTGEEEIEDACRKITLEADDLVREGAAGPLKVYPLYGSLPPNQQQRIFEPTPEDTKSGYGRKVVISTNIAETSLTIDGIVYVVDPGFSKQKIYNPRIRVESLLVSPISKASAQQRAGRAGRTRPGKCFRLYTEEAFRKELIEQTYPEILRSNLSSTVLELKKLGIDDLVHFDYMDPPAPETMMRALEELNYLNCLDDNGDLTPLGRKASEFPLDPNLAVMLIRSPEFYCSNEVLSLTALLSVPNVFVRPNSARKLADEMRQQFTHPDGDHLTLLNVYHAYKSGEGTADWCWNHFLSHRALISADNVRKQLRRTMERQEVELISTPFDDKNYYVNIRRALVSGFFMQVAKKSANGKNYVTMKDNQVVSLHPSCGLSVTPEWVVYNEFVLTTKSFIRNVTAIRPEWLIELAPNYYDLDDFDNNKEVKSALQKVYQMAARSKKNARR
UniProt O14139: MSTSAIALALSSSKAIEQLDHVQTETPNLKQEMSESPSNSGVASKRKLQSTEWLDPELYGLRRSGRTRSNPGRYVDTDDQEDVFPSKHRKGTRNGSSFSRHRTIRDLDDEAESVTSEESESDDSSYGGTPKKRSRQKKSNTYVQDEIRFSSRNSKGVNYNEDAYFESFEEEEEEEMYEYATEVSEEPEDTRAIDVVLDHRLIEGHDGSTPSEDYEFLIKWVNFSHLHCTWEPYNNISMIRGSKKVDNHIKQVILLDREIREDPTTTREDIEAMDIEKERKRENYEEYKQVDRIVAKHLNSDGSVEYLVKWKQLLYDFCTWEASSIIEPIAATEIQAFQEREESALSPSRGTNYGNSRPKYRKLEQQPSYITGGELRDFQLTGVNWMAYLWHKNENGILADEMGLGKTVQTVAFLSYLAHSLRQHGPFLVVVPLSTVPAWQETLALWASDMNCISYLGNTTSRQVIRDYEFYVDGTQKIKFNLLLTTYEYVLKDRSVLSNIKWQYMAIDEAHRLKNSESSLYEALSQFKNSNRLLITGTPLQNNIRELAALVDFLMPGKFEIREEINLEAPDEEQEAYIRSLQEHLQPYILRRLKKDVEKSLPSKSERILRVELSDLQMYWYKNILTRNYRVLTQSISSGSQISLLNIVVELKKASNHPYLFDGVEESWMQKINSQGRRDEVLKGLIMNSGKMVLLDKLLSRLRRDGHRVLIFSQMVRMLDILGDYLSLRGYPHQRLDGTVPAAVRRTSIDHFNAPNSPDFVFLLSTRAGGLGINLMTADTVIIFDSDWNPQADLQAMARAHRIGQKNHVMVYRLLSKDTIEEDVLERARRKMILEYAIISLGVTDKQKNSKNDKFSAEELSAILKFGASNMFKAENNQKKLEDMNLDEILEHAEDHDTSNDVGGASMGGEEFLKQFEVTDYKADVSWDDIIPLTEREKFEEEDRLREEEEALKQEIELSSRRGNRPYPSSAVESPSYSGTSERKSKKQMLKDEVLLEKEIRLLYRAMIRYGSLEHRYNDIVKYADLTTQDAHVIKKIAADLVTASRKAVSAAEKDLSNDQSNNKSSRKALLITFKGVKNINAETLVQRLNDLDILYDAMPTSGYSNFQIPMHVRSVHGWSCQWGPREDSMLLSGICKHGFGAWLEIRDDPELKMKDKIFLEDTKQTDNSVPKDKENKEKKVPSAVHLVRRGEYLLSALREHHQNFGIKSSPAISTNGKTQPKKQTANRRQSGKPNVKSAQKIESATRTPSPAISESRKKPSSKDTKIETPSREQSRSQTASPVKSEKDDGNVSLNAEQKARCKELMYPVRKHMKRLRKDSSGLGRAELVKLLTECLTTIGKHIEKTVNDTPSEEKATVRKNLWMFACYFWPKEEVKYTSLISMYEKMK

binding, binds:
Sap14 (from UniProt O59670)
Dbl8 (S. pombe (endogenous in S. pombe cells))
Uhp1 (S. pombe (endogenous in S. pombe cells))
Usp105 (from UniProt O74970)
Spp42 (from UniProt O14187 1-2363)
Brr2 (from UniProt Q9UT24 1-2176)
Rna4 (from UniProt Q9UTC7)
Usp104 (S. pombe (endogenous in S. pombe cells))
Ccq1 (from UniProt Q10432 1-735)
Prp43 (from UniProt O42945 1-735)
CHD1/Hrp3 (from UniProt O14139 1-1388)

— article PMC7816512
